Among the data in PMC5843676 are binding values, retold here.

The target in the assay is mutant, constitutively activated human αIIbβ3-P718 integrin on CHO cells (CHO-αIIbβ3-P718) (human). The experiment in a line: flow cytometry on cells; CHO transfectants with or without 10 nM PMA, incubated 30-60 min with PE-sEng; specificity tested with a tenfold molar excess of unlabeled sEng; parental CHO as control; only the binder purified.

Results are given in words; binding and its absence hold for the method and conditions named. Binding calls can cover weak binding; strength is not graded here.

B1: phycoerythrin-labeled soluble endoglin (PE-sEng) (domain or fragment, UniProt P17813 26-586)
chain: ETVHCDLQPVGPERGEVTYTTSQVSKGCVAQAPNAILEVHVLFLEFPTGPSQLELTLQASKQNGTWPREVLLVLSVNSSVFLHLQALGIPLHLAYNSSLVTFQEPPGVNTTELPSFPKTQILEWAAERGPITSAAELNDPQSILLRLGQAQGSLSFCMLEASQDMGRTLEWRPRTPALVRGCHLEGVAGHKEAHILRVLPGHSAGPRTVTVKVELSCAPGDLDAVLILQGPPYVSWLIDANHNMQIWTTGEYSFKIFPEKNIRGFKLPDTPQGLLGEARMLNASIVASFVELPLASIVSLHASSCGGRLQTSPAPIQTTPPKDTCSPELLMSLIQTKCADDAMTLVLKKELVAHLKCTITGLTFWDPSCEAEDRGDKFVLRSAYSSCGMQVSASMISNEAVVNILSSSSPQRKKVHCLNMDSLSFQLGLYLSPHFLQASNTIEPGQQSFVQVRVSPSVSEFLLQLDSCHLDLGPEGGTVELIQGRAAKGNCVSLLSPSPEGDPRFSFLLHFYTVPIPKTGTLSCTVALRPKTGSQDQEVHRTVFMRLNIISPDLSGCTSKG
modifications: phycoerythrin label (site not stated)
In the case of B1, the binding entry is listed as “binds”.

B2: soluble endoglin (sEng; extracellular domain Glu26-Gly586) (domain or fragment, UniProt P17813 26-586)
chain: ETVHCDLQPVGPERGEVTYTTSQVSKGCVAQAPNAILEVHVLFLEFPTGPSQLELTLQASKQNGTWPREVLLVLSVNSSVFLHLQALGIPLHLAYNSSLVTFQEPPGVNTTELPSFPKTQILEWAAERGPITSAAELNDPQSILLRLGQAQGSLSFCMLEASQDMGRTLEWRPRTPALVRGCHLEGVAGHKEAHILRVLPGHSAGPRTVTVKVELSCAPGDLDAVLILQGPPYVSWLIDANHNMQIWTTGEYSFKIFPEKNIRGFKLPDTPQGLLGEARMLNASIVASFVELPLASIVSLHASSCGGRLQTSPAPIQTTPPKDTCSPELLMSLIQTKCADDAMTLVLKKELVAHLKCTITGLTFWDPSCEAEDRGDKFVLRSAYSSCGMQVSASMISNEAVVNILSSSSPQRKKVHCLNMDSLSFQLGLYLSPHFLQASNTIEPGQQSFVQVRVSPSVSEFLLQLDSCHLDLGPEGGTVELIQGRAAKGNCVSLLSPSPEGDPRFSFLLHFYTVPIPKTGTLSCTVALRPKTGSQDQEVHRTVFMRLNIISPDLSGCTSKG
Regarding B2, the binding entry was “binds”.
